Consider 1 compound from patent US12157713B2, “Conjugated oligoelectrolytes as antimicrobial agents” (Nanyang Technological University, priority 2018, dated 2024).

For this series, the system named is human erythrocytes. Description: Haemolysis assay. The series is classed as cell-based. The following applies: MIC against S. aureus 25923. As to the method:
1 mL of mammalian blood, collected from a healthy donor, was mixed with 9 mL of PBS and centrifuged at 1,000 rpm for 5 min. Red blood cell pellet was collected and subsequently washed with PBS three times and diluted to a final concentration of 5% v/v. The various COEs were dissolved in PBS and two folds serial diluted in a 96-well microplate. 50 μL of red blood cell stock was mixed with 50 μL of COE solution in each well and incubated for 1 hr at 37° C. under shaking. The microplate was centrifuged at 1,000 rpm for 10 min. 80 μL aliquots of the supernatant were then transferred to a new 96-well microplate and diluted with another 80 μL of PBS. Haemolytic activity was calculated by measuring absorbance at 540 nm using a 96-well plate spectrophotometer. Triton X-100 (0.1% in PBS), which is able to lyse red blood cells, completely was used as positive control, while PBS was used as negative control. The haemolysis percentage was calculated using the following formula:
[formula] where Op is the absorbance of the COE-treated sample, Ob is the absorbance of negative control and Ot is the absorbance of positive control. Results and Discussions
The selectivity of COEs towards bacteria or mammalian cells can be quantified using the ratio between the concentrations leading to 50% lysis of human erythrocytes (HC50) and the MIC value.

For the compound `CN(C)CC[N+](C)(C)CCCCCCOc1ccc(/C=C/c2ccc(OCCCCCC[N+](C)(C)CCN(C)C)cc2)cc1` [COE-D62N], the “HC50/MIC (S. aureus) ratio” value is reported as over 32768.
